Our source for the binding values is publication PMC5742674.

Sequences of proteins named here, by UniProt entry; tags and fusion partners are left off.
UniProt O88597: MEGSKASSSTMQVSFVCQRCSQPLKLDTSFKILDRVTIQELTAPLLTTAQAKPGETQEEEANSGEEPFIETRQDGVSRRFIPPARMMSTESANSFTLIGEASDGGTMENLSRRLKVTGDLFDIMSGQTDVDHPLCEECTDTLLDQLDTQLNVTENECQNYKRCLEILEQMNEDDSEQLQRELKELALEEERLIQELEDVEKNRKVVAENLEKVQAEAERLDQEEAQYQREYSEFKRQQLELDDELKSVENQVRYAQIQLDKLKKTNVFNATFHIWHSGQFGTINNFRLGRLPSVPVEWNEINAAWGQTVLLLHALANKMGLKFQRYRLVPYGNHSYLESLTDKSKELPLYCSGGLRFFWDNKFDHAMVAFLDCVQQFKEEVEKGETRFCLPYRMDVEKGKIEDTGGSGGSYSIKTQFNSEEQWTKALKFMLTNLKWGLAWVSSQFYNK

Results are given in words; binding and its absence hold for the method and conditions named. Binding seen in cells or lysates may run through a third protein.

For the assay, the target named is T1, toll‐like receptor 3 (TLR3) (mouse (endogenous in heart tissue)) (UniProt Q99MB1).
T1 sequence: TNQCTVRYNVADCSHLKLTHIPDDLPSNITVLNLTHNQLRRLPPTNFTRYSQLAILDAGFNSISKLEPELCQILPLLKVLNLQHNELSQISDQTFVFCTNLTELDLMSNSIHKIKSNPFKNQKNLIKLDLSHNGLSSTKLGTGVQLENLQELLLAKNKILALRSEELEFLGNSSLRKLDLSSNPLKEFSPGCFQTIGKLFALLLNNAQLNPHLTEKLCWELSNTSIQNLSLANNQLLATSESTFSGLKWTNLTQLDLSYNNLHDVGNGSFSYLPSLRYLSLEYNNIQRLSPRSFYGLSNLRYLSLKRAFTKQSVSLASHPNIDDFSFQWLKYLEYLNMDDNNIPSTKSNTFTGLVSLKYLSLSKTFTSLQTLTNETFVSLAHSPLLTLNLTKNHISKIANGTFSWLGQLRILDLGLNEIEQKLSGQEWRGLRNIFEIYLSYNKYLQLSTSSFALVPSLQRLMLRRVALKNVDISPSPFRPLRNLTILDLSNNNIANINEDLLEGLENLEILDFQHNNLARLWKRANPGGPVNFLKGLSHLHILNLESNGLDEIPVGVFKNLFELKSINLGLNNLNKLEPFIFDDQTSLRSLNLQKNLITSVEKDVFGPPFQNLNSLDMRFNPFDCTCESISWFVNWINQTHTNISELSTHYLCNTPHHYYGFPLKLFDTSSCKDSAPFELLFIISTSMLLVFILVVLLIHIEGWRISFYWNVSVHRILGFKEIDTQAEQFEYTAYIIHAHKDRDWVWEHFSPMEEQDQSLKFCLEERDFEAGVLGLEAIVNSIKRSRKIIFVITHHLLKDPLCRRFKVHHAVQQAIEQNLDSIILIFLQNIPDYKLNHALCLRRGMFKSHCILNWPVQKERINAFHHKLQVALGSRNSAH
Nature of the assay: co-IP; mouse heart tissue lysates (RIPA buffer, 300 μg total protein; sham or infarct myocardium, 4 weeks after MI), pre-incubated with isotype IgG, precipitated with 6 μg anti-TLR3 antibody overnight at 4°C and protein G-agarose, then Western blot; IP with isotype IgG as control. Background: Immunoblotting shows a protein as a band on a membrane.

For the substance beclin‐1 (from UniProt O88597 1-448), the binding entry is recorded as “no binding”.
